Assay results taken from the supplement of paper PMC8269313.
This is a selection; strong and weak results do not stand in their true shares.

Tested on: 4T1
Assay: % inhibition of 4T1 cell number vs DMSO control; higher = stronger growth inhibition
Settings: 1 µM, 3 days
Method in brief: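 4T1-H2B-GFP mouse breast cancer cells (3000 per well, 2% FBS medium) were seeded in 96-well imaging plates on plastic, denuded lung or mCAF1 fibroblast-derived matrix, Matrigel (15 μg/mL) or 0.2% gelatin; edge wells were left unused. After 16 h, kinase inhibitors were added at 1 μM final for 3 days. Plates were formalin-fixed, DAPI-stained and imaged on an INCell Analyzer 2200, and GFP-positive nuclei were counted. Percent inhibition of cell number was calculated relative to DMSO control.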

O=C1Nc2ccc(-c3cccnc3)cc2/C1=C/c1ccc[nH]1 [JAK3 Inhibitor VI]
% inhibition of 4T1 cell number (substrate: Matrigel): -19.4% | % inhibition of 4T1 cell number (substrate: gelatin): -11% | % inhibition of 4T1 cell number (substrate: lung fibroblast-derived matrix): 1.34% | % inhibition of 4T1 cell number (substrate: mCAF1 fibroblast-derived matrix): 32.6% | % inhibition of 4T1 cell number (substrate: plastic): 32.5%
